This passage reports binding results from publication PMC3771994.

These are yes or no findings as the source states them, for the method shown. In cells and extracts the contact can be indirect. Some results given as binding are weak or reduced against the parent protein; the word gives no strength. Sequences can lack the tags named with a protein.

In one assay the target is T1, Flag-NPHP7 1-156 (human) (UniProt Q9BZE0).
T1 sequence: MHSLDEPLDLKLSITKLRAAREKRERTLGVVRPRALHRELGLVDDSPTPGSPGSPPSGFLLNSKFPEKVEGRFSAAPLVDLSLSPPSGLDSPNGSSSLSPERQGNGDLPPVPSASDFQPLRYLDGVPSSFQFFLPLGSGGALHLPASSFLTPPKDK
Put plainly: co-IP; Flag-tagged NPHP7 (full length or truncations) co-expressed with V5-BBS1 in HEK 293T; lysis in 20 mM Tris-HCl pH 7.5, 1% Triton-X 100, 50 mM NaCl; precipitation with anti-Flag-M2 agarose beads for 3 h; western blot with anti-V5.

The target in assay [1] is T2, Flag-tagged full-length NPHP7 (human) (UniProt Q9BZE0).
T2 sequence: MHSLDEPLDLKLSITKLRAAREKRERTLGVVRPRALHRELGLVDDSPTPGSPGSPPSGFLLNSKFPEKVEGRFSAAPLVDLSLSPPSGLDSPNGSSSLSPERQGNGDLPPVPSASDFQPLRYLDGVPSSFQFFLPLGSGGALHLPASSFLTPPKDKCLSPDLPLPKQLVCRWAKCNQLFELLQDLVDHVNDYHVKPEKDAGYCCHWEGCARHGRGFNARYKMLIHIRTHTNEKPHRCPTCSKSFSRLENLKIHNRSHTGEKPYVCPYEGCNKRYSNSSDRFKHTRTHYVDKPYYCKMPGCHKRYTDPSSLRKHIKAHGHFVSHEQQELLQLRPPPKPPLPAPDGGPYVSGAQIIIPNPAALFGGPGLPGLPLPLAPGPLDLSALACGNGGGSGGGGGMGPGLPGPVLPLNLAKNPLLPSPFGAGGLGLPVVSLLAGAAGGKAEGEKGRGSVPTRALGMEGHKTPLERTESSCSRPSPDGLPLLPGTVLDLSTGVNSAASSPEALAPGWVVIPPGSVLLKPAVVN
Described as above.

Assay [2] concerns the target T3, BBS1 (tagged, precipitated in the test of BBS1-12 against NPHP7) (human) (UniProt Q8NFJ9).
T3 sequence: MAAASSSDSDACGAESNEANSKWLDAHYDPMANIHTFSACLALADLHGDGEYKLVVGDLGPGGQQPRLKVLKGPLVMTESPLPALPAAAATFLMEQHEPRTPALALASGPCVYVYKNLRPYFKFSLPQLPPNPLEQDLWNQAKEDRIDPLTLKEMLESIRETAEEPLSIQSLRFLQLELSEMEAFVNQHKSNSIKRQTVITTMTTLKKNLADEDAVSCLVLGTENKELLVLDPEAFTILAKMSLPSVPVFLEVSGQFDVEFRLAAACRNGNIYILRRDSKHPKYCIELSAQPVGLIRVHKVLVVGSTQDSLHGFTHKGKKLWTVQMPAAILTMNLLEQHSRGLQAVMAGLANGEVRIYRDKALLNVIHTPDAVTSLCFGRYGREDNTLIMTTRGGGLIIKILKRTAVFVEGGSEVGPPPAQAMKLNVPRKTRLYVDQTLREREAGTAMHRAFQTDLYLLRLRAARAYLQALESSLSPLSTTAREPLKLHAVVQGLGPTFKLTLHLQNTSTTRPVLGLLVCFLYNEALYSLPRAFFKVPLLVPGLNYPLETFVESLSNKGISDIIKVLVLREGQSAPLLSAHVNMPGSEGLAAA
As to the kind of experiment: co-IP; tagged human BBS family members (BBS1-12) and NPHP7 overexpressed in HEK 293T cells; the BBS protein precipitated, NPHP7 detected; no figure given for this test.

B1: V5-tagged full-length BBS1 (protein, UniProt Q8NFJ9 1-593)
chain: T3 sequence
As for B1, the binding result (with Flag-NPHP7 1-156 (human); in assay [1]) was “binds” throughout.

B2: NPHP7 (tagged, co-precipitated in the test of BBS1-12 against NPHP7) (protein, UniProt Q9BZE0 1-524)
chain: T2 sequence
In the case of B2, the binding result in assay [2] was “binds”.
